# Source: the supplement of paper PMC8728848
# The list shows a part of the results.
# Legend:
# Test in all cases: glycan array binding signal (z-score within array); higher = stronger binding
# Conditions in all cases: glycan notation: IUPAC condensed, linker removed
# GalNAc(b1-4)GlcNAc = molecular target: GalNAc(b1-4)GlcNAc
# Summary of the method: (§1)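 Arrays were curated from the Consortium for Functional Glycomics database, 3228 in total, and kept only where the protein sequence was available. Binding is expressed as a within-array Z-score. This score was averaged across arrays of the same protein sequence at different concentrations or buffers and across linkers, and negative values can be read as non-binding.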
# [1] = molecular target: GalNAc(b1-4)GlcNAc(b1-2)Man
# Summary of the method: as §1
# [2] = molecular target: GalNAc(b1-4)GlcNAc(b1-2)Man(a1-3)[GalNAc(b1-4)GlcNAc(b1-2)Man(a1-6)]Man(b1-4)GlcNAc(b1-4)GlcNAc
# Summary of the method: as §1
# [3] = molecular target: GalNAc(b1-4)GlcNAc(b1-3)GalNAc(b1-4)GlcNAc
# Summary of the method: as §1
# GalNAc(b1-4)GlcNAc6S = molecular target: GalNAc(b1-4)GlcNAc6S
# Summary of the method: as §1
# GalNAc(b1-6)GalNAc = molecular target: GalNAc(b1-6)GalNAc
# Summary of the method: as §1
# GalNAc3S(b1-4)GlcNAc = molecular target: GalNAc3S(b1-4)GlcNAc
# Summary of the method: as §1
# GalNAc3S(b1-4)GlcNAc3S = molecular target: GalNAc3S(b1-4)GlcNAc3S
# Summary of the method: as §1
# [4] = molecular target: GalNAc3S(b1-4)[Fuc(a1-3)]GlcNAc
# Summary of the method: as §1
# GalNAc4S6S(b1-4)GlcNAc = molecular target: GalNAc4S6S(b1-4)GlcNAc
# Summary of the method: as §1
# GalNAc6S(b1-4)GlcNAc = molecular target: GalNAc6S(b1-4)GlcNAc
# Summary of the method: as §1
# Glc(a1-4)Glc = molecular target: Glc(a1-4)Glc
# Summary of the method: as §1
# [5] = molecular target: Glc(a1-4)Glc(a1-4)Glc(a1-4)Glc
# Summary of the method: as §1
# Glc(a1-6)Glc(a1-6)Glc = molecular target: Glc(a1-6)Glc(a1-6)Glc
# Summary of the method: as §1
# [6] = molecular target: Glc(a1-6)Glc(a1-6)Glc(a1-6)Glc
# Summary of the method: as §1
# Glc(b1-4)Glc = molecular target: Glc(b1-4)Glc
# Summary of the method: as §1
# Glc(b1-6)Glc = molecular target: Glc(b1-6)Glc
# Summary of the method: as §1
# GlcA(b1-3)Gal = molecular target: GlcA(b1-3)Gal
# Summary of the method: as §1
# GlcA(b1-3)GlcNAc = molecular target: GlcA(b1-3)GlcNAc
# Summary of the method: as §1
# GlcA(b1-6)Gal = molecular target: GlcA(b1-6)Gal
# Summary of the method: as §1
# [7] = molecular target: GlcA3S(b1-3)Gal(b1-4)GlcNAc(b1-2)Man
# Summary of the method: as §1
# [8] = molecular target: GlcA3S(b1-3)Gal(b1-4)GlcNAc(b1-3)Gal(b1-4)Glc
# Summary of the method: as §1
# [9] = molecular target: GlcNAc(a1-3)Gal(b1-4)GlcNAc
# Summary of the method: as §1
# [10] = molecular target: GlcNAc(a1-4)Gal(b1-3)GlcNAc
# Summary of the method: as §1
# [11] = molecular target: GlcNAc(a1-4)Gal(b1-4)GalNAc
# Summary of the method: as §1
# [12] = molecular target: GlcNAc(a1-4)Gal(b1-4)GlcNAc
# Summary of the method: as §1
# [13] = molecular target: GlcNAc(a1-4)Gal(b1-4)GlcNAc(b1-3)Gal(b1-4)Glc
# Summary of the method: as §1
# [14] = molecular target: GlcNAc(a1-4)Gal(b1-4)GlcNAc(b1-3)Gal(b1-4)GlcNAc
# Summary of the method: as §1
# [15] = molecular target: GlcNAc(a1-4)Gal(b1-4)GlcNAc(b1-3)Gal(b1-4)GlcNAc(b1-3)Gal(b1-4)GlcNAc
# Summary of the method: as §1
# [16] = molecular target: GlcNAc(a1-4)Gal(b1-4)GlcNAc(b1-3)Gal(b1-4)[Fuc(a1-3)]GlcNAc(b1-3)Gal(b1-4)[Fuc(a1-3)]GlcNAc
# Summary of the method: as §1
# [17] = molecular target: GlcNAc(a1-6)Gal(b1-4)GlcNAc
# Summary of the method: as §1
# [18] = molecular target: GlcNAc(b1-2)Gal(b1-3)GalNAc
# Summary of the method: as §1
# [19] = molecular target: GlcNAc(b1-2)Man(a1-3)[GlcNAc(b1-2)Man(a1-6)]Man(b1-4)GlcNAc(b1-4)GlcNAc
# Summary of the method: as §1
# [20] = molecular target: GlcNAc(b1-2)Man(a1-3)[GlcNAc(b1-2)Man(a1-6)]Man(b1-4)GlcNAc(b1-4)[Fuc(a1-6)]GlcNAc
# Summary of the method: as §1
# [21] = molecular target: GlcNAc(b1-2)Man(a1-3)[GlcNAc(b1-4)][GlcNAc(b1-2)Man(a1-6)]Man(b1-4)GlcNAc(b1-4)GlcNAc
# Summary of the method: as §1
# [22] = molecular target: GlcNAc(b1-2)Man(a1-3)[GlcNAc(b1-4)][GlcNAc(b1-2)Man(a1-6)]Man(b1-4)GlcNAc(b1-4)[Fuc(a1-6)]GlcNAc
# Summary of the method: as §1
# [23] = molecular target: GlcNAc(b1-2)[GlcNAc(b1-4)]Man(a1-3)[GlcNAc(b1-2)Man(a1-6)]Man(b1-4)GlcNAc(b1-4)GlcNAc
# Summary of the method: as §1
# [24] = molecular target: GlcNAc(b1-2)[GlcNAc(b1-4)]Man(a1-3)[GlcNAc(b1-4)][GlcNAc(b1-2)Man(a1-6)]Man(b1-4)GlcNAc(b1-4)GlcNAc
# Summary of the method: as §1
# [25] = molecular target: GlcNAc(b1-2)[GlcNAc(b1-4)]Man(a1-3)[GlcNAc(b1-4)][GlcNAc(b1-2)[GlcNAc(b1-6)]Man(a1-6)]Man(b1-4)GlcNAc(b1-4)GlcNAc
# Summary of the method: as §1
# [26] = molecular target: GlcNAc(b1-2)[GlcNAc(b1-4)]Man(a1-3)[GlcNAc(b1-4)][GlcNAc(b1-2)[GlcNAc(b1-6)]Man(a1-6)]Man(b1-4)GlcNAc(b1-4)[Fuc(a1-6)]GlcNAc
# Summary of the method: as §1
# [27] = molecular target: GlcNAc(b1-2)[GlcNAc(b1-6)]Man(a1-6)[GlcNAc(b1-2)Man(a1-3)]Man(b1-4)GlcNAc(b1-4)GlcNAc
# Summary of the method: as §1
# [28] = molecular target: GlcNAc(b1-2)[GlcNAc(b1-6)]Man(a1-6)[GlcNAc(b1-2)Man(a1-3)]Man(b1-4)GlcNAc(b1-4)[Fuc(a1-6)]GlcNAc
# Summary of the method: as §1
# [29] = molecular target: GlcNAc(b1-2)[GlcNAc(b1-6)]Man(a1-6)[GlcNAc(b1-4)][GlcNAc(b1-2)Man(a1-3)]Man(b1-4)GlcNAc(b1-4)GlcNAc
# Summary of the method: as §1
# GlcNAc(b1-3)Fuc = molecular target: GlcNAc(b1-3)Fuc
# Summary of the method: as §1
# GlcNAc(b1-3)Gal = molecular target: GlcNAc(b1-3)Gal
# Summary of the method: as §1
binder,measurement,setting,value
"XTP3-B-MRH2 (Homo sapiens), Q96DZ1 (protein) EFLSGSYCFRGGVGWWKYEFCYGKHVHQYHEDKDSGKTSVVVGTWNQEEHIEWAKKNTARAYHLQDDGTQTVRMVSHFYGNGDICDITDKPRQVTVKLKCKESDSPHAVTVYMLEPHSCQYILGVESPVICKILDTA",glycan array binding signal (z-score),GalNAc(b1-4)GlcNAc,2.09
same,glycan array binding signal (z-score),[1],-0.092
same,glycan array binding signal (z-score),[2],-0.025
same,glycan array binding signal (z-score),[3],0.458
same,glycan array binding signal (z-score),GalNAc(b1-4)GlcNAc6S,-0.644
same,glycan array binding signal (z-score),GalNAc(b1-6)GalNAc,-1.29
same,glycan array binding signal (z-score),GalNAc3S(b1-4)GlcNAc,-0.191
same,glycan array binding signal (z-score),GalNAc3S(b1-4)GlcNAc3S,-0.591
same,glycan array binding signal (z-score),[4],0.236
same,glycan array binding signal (z-score),GalNAc4S6S(b1-4)GlcNAc,-0.621
same,glycan array binding signal (z-score),GalNAc6S(b1-4)GlcNAc,0.681
same,glycan array binding signal (z-score),Glc(a1-4)Glc,0.45
same,glycan array binding signal (z-score),[5],0.461
same,glycan array binding signal (z-score),Glc(a1-6)Glc(a1-6)Glc,0.709
same,glycan array binding signal (z-score),[6],0.032
same,glycan array binding signal (z-score),Glc(b1-4)Glc,-1.04
same,glycan array binding signal (z-score),Glc(b1-6)Glc,-0.464
same,glycan array binding signal (z-score),GlcA(b1-3)Gal,-1.48
same,glycan array binding signal (z-score),GlcA(b1-3)GlcNAc,-1.71
same,glycan array binding signal (z-score),GlcA(b1-6)Gal,-0.007
same,glycan array binding signal (z-score),[7],-0.557
same,glycan array binding signal (z-score),[8],-0.437
same,glycan array binding signal (z-score),[9],-0.785
same,glycan array binding signal (z-score),[10],-1.25
same,glycan array binding signal (z-score),[11],-1.12
same,glycan array binding signal (z-score),[12],0.381
same,glycan array binding signal (z-score),[13],-1.28
same,glycan array binding signal (z-score),[14],-0.157
same,glycan array binding signal (z-score),[15],0.75
same,glycan array binding signal (z-score),[16],0.946
same,glycan array binding signal (z-score),[17],0.424
same,glycan array binding signal (z-score),[18],0.355
same,glycan array binding signal (z-score),[19],-0.57
same,glycan array binding signal (z-score),[20],-0.201
same,glycan array binding signal (z-score),[21],-0.128
same,glycan array binding signal (z-score),[22],-0.728
same,glycan array binding signal (z-score),[23],-1.12
same,glycan array binding signal (z-score),[24],-0.712
same,glycan array binding signal (z-score),[25],0.018
same,glycan array binding signal (z-score),[26],0.752
same,glycan array binding signal (z-score),[27],1.7
same,glycan array binding signal (z-score),[28],-0.374
same,glycan array binding signal (z-score),[29],-0.561
same,glycan array binding signal (z-score),GlcNAc(b1-3)Fuc,1.89
same,glycan array binding signal (z-score),GlcNAc(b1-3)Gal,-0.273

# Another view of some results above:
binder | measurement | setting | value
XTP3-B-MRH2 (Homo sapiens), Q96DZ1 (protein) EFLSGSYCFRGGVGWWKYEFCYGKHVHQYHEDKDSGKTSVVVGTWNQEEHIEWAKKNTARAYHLQDDGTQTVRMVSHFYGNGDICDITDKPRQVTVKLKCKESDSPHAVTVYMLEPHSCQYILGVESPVICKILDTA | glycan array binding signal (z-score) | [2] | -0.025
same | glycan array binding signal (z-score) | GalNAc(b1-4)GlcNAc6S | -0.644
same | glycan array binding signal (z-score) | GalNAc(b1-6)GalNAc | -1.29
same | glycan array binding signal (z-score) | GalNAc3S(b1-4)GlcNAc | -0.191
same | glycan array binding signal (z-score) | GalNAc3S(b1-4)GlcNAc3S | -0.591
same | glycan array binding signal (z-score) | Glc(a1-4)Glc | 0.45
same | glycan array binding signal (z-score) | Glc(b1-6)Glc | -0.464
same | glycan array binding signal (z-score) | [8] | -0.437
same | glycan array binding signal (z-score) | [9] | -0.785
same | glycan array binding signal (z-score) | [10] | -1.25
same | glycan array binding signal (z-score) | [15] | 0.75
same | glycan array binding signal (z-score) | [22] | -0.728
same | glycan array binding signal (z-score) | [29] | -0.561
